Measurements from PubChem BioAssay AID2685 (National Center for Advancing Translational Sciences (NCATS), 2010).
Some of the results follow. Further columns of the screen follow, without active or inactive calls. Most of these compounds were active or inconclusive in the main read-out, so they are no random draw. Potencies come from curve fits of mixed quality, noted in brackets.

Assay: qHTS Assay for Lipid Storage Modulators in Drosophila S3 Cells;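 as to cell number change: cells counted by Cell Tracker Red CMTPX staining in the red channel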
Conditions: BODIPY lipid droplet fluorescence, 18-24 h; for cell number change: measured here: cell count max response, cells fed with added oleic acid
How it was run: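 Drosophila S3 cells got compounds at several concentrations plus oleic acid (400 uM solution). Laser-scanning cytometry with 488 nm excitation read lipid droplets at 500-530 nm and cells at 575-640 nm. Percent activity was relative to 20 uM Triacsin C.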

[1] = measured here: lipid fluorescence (Fed channel) AC50, cells fed with added oleic acid
[2] = measured here: cell number channel AC50, cells fed with added oleic acid

Row | Structure (SMILES) | cell number change | AC50 [1] | AC50 [2]
1 | NC(=O)CN1CCCN(S(=O)(=O)c2ccc(Br)cc2)CC1 | 156% | 0.731 µM [falling, single point] | 
2 | CCC(C)Nc1ccc(NC(C)CC)cc1 (stereo not drawn) | 8.47% | 0.00461 µM [falling, full curve, poor fit] | 0.00461 µM [falling, full curve, poor fit]
3 | Cc1noc(-c2ccccc2)c1NC(=O)Nc1ccccc1 | -17.1% |  | 
4 | COc1ccccc1-c1cc(C(=O)N/N=C/c2sccc2C)c2ccccc2n1 | -21.1% | 0.206 µM [falling, full curve, poor fit] | 
5 | O=C(C1CC(=O)N(c2ccc(F)cc2)C1)N1CCN(c2ccccc2)CC1 (stereo not drawn) | 10.7% |  | 
6 | COC(=O)C1=CN(C)C=C(C(=O)OC)C1c1ccccc1Cl | -57.6% | 1.64 µM [falling, full curve] | 2.06 µM [falling, full curve]
7 | Cc1csc(-c2cnn(-c3ccccc3)c2NC(=O)c2cccc(F)c2)n1 | 91.2% | 0.82 µM [rising, single point] | 5.8 µM [rising, partial curve]
8 | CC(C)[C@@H](C(=O)NCC1CCCO1)N1C(=O)N2CCc3c([nH]c4ccccc34)[C@@]2(C)C1=O (stereo partly drawn) | 25.2% | 29.1 µM [rising, single point] | 
9 | Nc1ccc(-c2c3ccccc3nc3ccccc23)cc1 | 13.6% | 1.84 µM [rising, partial curve] | 
10 | O=C(Cn1c(/C=C/c2ccccc2)nc2ccccc21)Nc1ccc(F)cc1 | 0.29% | 0.206 µM [rising, full curve, poor fit] | 
11 | O=C(O)[C@@H]1CCCN1C(=O)c1ccccc1N1C(=O)[C@@H]2Cc3c([nH]c4ccccc34)C(c3cccc(Cl)c3)N2C1=O (stereo partly drawn) | -1.69% |  | 
12 | Cc1nnc(SCC(=O)NC(C)c2ccccc2)[nH]c1=O (stereo not drawn) | -1.29% | 4.61 µM [falling, partial curve] | 
13 | CCN(c1ccccc1)S(=O)(=O)c1ccc(Cl)c(C(=O)NCCc2ccc(OC)cc2)c1 | -64% |  | 6.51 µM [falling, partial curve, poor fit]
14 | Cc1ccc(Oc2ncnc(N)c2[N+](=O)[O-])cc1C | -16.9% | 2.31 µM [falling, full curve] | 
15 | c1ccc(CN2CCN(c3nc(NCc4ccco4)c4ccccc4n3)CC2)cc1 | -88.7% |  | 
16 | CCc1ccc(-c2cc(C)no2)cc1S(=O)(=O)N1CCN(c2cc(C)ccc2C)CC1 | 142% | 29.1 µM [falling, single point] | 
17 | Cc1ccc2c(c1)-c1ccccc1S(=O)(=O)N2 | 35.4% | 29.1 µM [rising, single point] | 20.6 µM [rising, single point]
18 | CCOC(=O)N1CCN(C(=O)CCc2nc3sc4c(c3c(=O)[nH]2)CCCC4)CC1 | -19.8% |  | 
19 | O=C(Nc1ncccn1)c1ccc(C(F)(F)F)cc1 | 12.1% | 0.651 µM [falling, full curve, poor fit] | 
20 | COc1cc2c(cc1OC)C1(Nc3c-2c(Cc2ccccc2)nn3-c2ccccc2)C(=O)Nc2ccccc21 (stereo not drawn) | 0.462% | 6.51 µM [rising, single point] | 

2 entries drawn at random from those above, as already listed:
Row | Structure (SMILES) | cell number change | AC50 [1] | AC50 [2]
16 | CCc1ccc(-c2cc(C)no2)cc1S(=O)(=O)N1CCN(c2cc(C)ccc2C)CC1 | 142% | 29.1 µM [falling, single point] | 
14 | Cc1ccc(Oc2ncnc(N)c2[N+](=O)[O-])cc1C | -16.9% | 2.31 µM [falling, full curve] | 

Following part:

Row | Structure (SMILES) | cell number change | AC50 [1] | AC50 [2]
21 | Clc1ccc(-n2cccc2/C=N/n2cnnc2)cc1 | 28.2% | 0.0651 µM [falling, full curve, poor fit] | 
22 | Nc1nc(SCC(=O)c2ccc(Br)s2)n[nH]1 | 6.84% | 0.82 µM [rising, partial curve] | 0.411 µM [rising, full curve]
23 | O=C(Nc1nc(-c2ccccc2)cs1)c1ccc(N2CCOCC2)c([N+](=O)[O-])c1 | -42.5% | 14.6 µM [falling, partial curve] | 14.6 µM [falling, partial curve]
24 | CCOc1ccc(N2CC(C(=O)NCCC3=CCCCC3)CC2=O)cc1 (stereo not drawn) | -6.52% | 6.51 µM [falling, partial curve] | 
25 | CCOc1ccccc1NC(=O)CCNC(=O)Cn1ccc2ccccc2c1=O | 3.95% | 5.62 µM [rising, single point] | 0.0731 µM [rising, full curve, poor fit]
26 | Cc1oc2c(C)c(O)ccc2c(=O)c1N1C(=O)c2ccccc2C1=O | 3.26% |  | 
27 | O=C(Nc1ccc(S(=O)(=O)N2CCOCC2)cc1)c1ccc(Cl)cc1 | -15.4% |  | 
28 | COc1ccc(C(=O)Nn2c(CC(C)C)nc3cc(OC)c(OC)cc3c2=O)c(OC)c1 | -12.6% | 29.1 µM [falling, single point] | 
29 | COc1ccccc1NC(=O)CSc1n[nH]c(-c2ccccn2)n1 | 13.2% |  | 
30 | CC(=O)NC(N1CCCCC1)C(F)(F)C(F)(F)C(F)(F)C(F)F (stereo not drawn) | -0.325% | 29.1 µM [falling, single point] | 
31 | O=C(Cc1ccccc1)Nc1ccnn1C1CCN(Cc2ccc(CO)o2)CC1 | 30.7% | 6.51 µM [rising, single point] | 0.92 µM [rising, full curve, poor fit]
32 | O=C(C1CCN(S(=O)(=O)c2ccc3ccccc3c2)CC1)N1CCN(c2ncccn2)CC1 | 32% | 4.11 µM [rising, single point] | 5.8 µM [rising, partial curve]
33 | CC(=O)Oc1ccc(-c2cccc(C(=O)O)c2)cc1 | 16.5% | 0.259 µM [falling, full curve] | 
34 | CCOC(=O)c1cc(-c2ccccc2)sc1NC(=O)CCN1C(=O)c2ccccc2C1=O | -2.89% | 0.164 µM [rising, full curve, poor fit] | 
35 | O=C(O)c1cccnc1SC1CC(=O)N(c2ccc(OC(F)F)cc2)C1=O (stereo not drawn) | -32.4% | 8.2 µM [falling, partial curve] | 0.82 µM [falling, full curve, poor fit]
36 | COc1cc(OC)cc(C(=O)N[C@H](C(=O)OCC(=O)Nc2cccc(F)c2)C(C)C)c1 |  | 20.6 µM [rising, single point] | 
37 | CCCCNC(=O)c1cc2n(n1)C(C(F)(F)F)CC(c1ccccc1)N2 (stereo not drawn) | 11.8% | 8.2 µM [rising, partial curve, poor fit] | 
38 | CC(=O)c1ccc(NC(=O)COc2ccc3c(c2)OCO3)cc1 | 19.4% |  | 
39 | COC(=O)C(NC(=O)C(C)NC(=O)OCc1ccccc1)C(C)C (stereo not drawn) | -17.8% | 3.66 µM [falling, single point] | 
40 | NC(=O)C1CCN(C(=O)COCc2cc(-c3ccc4c(c3)OCO4)on2)CC1 | 17.3% | 16.4 µM [rising, partial curve] | 

Row | Structure (SMILES) | cell number change | AC50 [1] | AC50 [2]
41 | N#Cc1ccccc1COC(=O)c1ccc2c(c1)OCCO2 | 106% |  | 10.3 µM [rising, partial curve]
42 | CN(C)C(=O)c1ccc(Nc2nc(-c3cccs3)nc3ccccc23)cc1 | 13.9% |  | 
43 | CCOc1cc(S(=O)(=O)Nc2ccccc2CC)ccc1Cl | -18% | 0.82 µM [falling, full curve] | 
44 | Cc1cc(C)c(S(=O)(=O)N(C)CC(=O)NCCCn2ccnc2)c(C)c1 | -14.5% | 35.5 µM [rising, single point] | 
45 | CCc1noc(C)c1C(=O)OCC(=O)N(CCOC)c1c(N)n(Cc2ccccc2)c(=O)[nH]c1=O | 32.5% |  | 25.9 µM [rising, single point]
46 | COC(=O)c1ccccc1NC(=O)CSc1nnc(C(CO)NC(=O)c2ccccc2Cl)n1C (stereo not drawn) | 8.96% | 5.17 µM [rising, single point] | 
47 | CCC(C(=O)O)n1nc(-c2ccccc2)c2cc(Cl)ccc21 (stereo not drawn) | 21% | 11.6 µM [rising, partial curve] | 
48 | Cc1ccc(S(=O)(=O)c2c(C)nn(-c3ccccc3)c2OC(=O)c2ccc(Br)o2)cc1 | 60.6% | 10.3 µM [rising, partial curve] | 3.26 µM [falling, partial curve]
49 | Cc1ccc(CCNC(=O)c2cccc(N3CCCC3=O)c2)cc1 | 15% | 20.6 µM [rising, single point] | 
50 | CC1=C(C(=O)Nc2cccnc2)C(c2ccncc2)n2nnnc2N1 (stereo not drawn) | -2.02% | 6.51 µM [falling, single point] | 
51 | COc1ccc(OC)c2c1sc(=NC(=O)C(C)(C)C)n2C | 15.5% |  | 
52 | Cc1cccc(N2CCN(C(=O)NC3CCCCC3)CC2)c1C | 8.07% |  | 
53 | CCC(C#CCN1CCCCC1)(CC)OCCC#N | -1.6% |  | 
54 | COc1cccc(NC(=O)CN(C)C(=O)c2c(C)nn(CC(C)C)c2Cl)c1 | -17.3% | 6.51 µM [rising, partial curve, poor fit] | 
55 | Cc1cc(S(=O)(=O)Nc2ccc(F)cc2)c(C)s1 | -31.6% | 6.51 µM [rising, single point] | 29.1 µM [falling, single point]
56 | O=C(CCc1nnc(Cc2ccc(-c3ccccc3)cc2)o1)NCC1CC1 | 0.873% |  | 
57 | COc1ccc(Cl)cc1NC(=O)CN(C)C(=O)C1CC(=O)N(Cc2ccc(C)cc2)C1 (stereo not drawn) | 21.6% |  | 3.66 µM [rising, full curve, poor fit]
58 | CC(/C=C/c1ccccc1)=N\NC(=O)c1cc(C)[nH]n1 | 35.1% |  | 2.06 µM [rising, full curve]
59 | CCOc1ccc(/C=C/C(=O)Oc2ccc(OC)cc2)cc1 | -3.17% | 1.46 µM [rising, partial curve, poor fit] | 
60 | CC1(C)CC(=O)C=C(C(=O)NC2CCCc3c2cnn3-c2cc(F)cc(F)c2)O1 (stereo not drawn) | -26.2% | 0.58 µM [falling, single point] | 1.84 µM [falling, partial curve, poor fit]

A few values from above.
cell number change, CCOc1cc(S(=O)(=O)Nc2ccccc2CC)ccc1Cl is entered as -18%
cell number change, CCOc1ccc(/C=C/C(=O)Oc2ccc(OC)cc2)cc1 is entered as -3.17%
cell number change, COc1ccc(OC)c2c1sc(=NC(=O)C(C)(C)C)n2C is entered as 15.5%
AC50 [1], CCC(C(=O)O)n1nc(-c2ccccc2)c2cc(Cl)ccc21 (stereo not drawn) is entered as 11.6 µM [rising, partial curve]
AC50 [2], N#Cc1ccccc1COC(=O)c1ccc2c(c1)OCCO2 is entered as 10.3 µM [rising, partial curve]
